PMC12032720, “Pharmacological assessment of the extract and a novel compound of Bacillus velezensis DM derived from the rhizosphere of Datura metel L. with microbial molecular screening” (BMC Complementary Medicine and Therapies, 2025)
In brackets after ≈: the same amount, converted by molar mass.

What was measured:
[1] = test system: MCF-7; experiment: MTT cytotoxicity on breast cancer cell line MCF-7; type: cell-based; settings: Homo sapiens, MCF7, 0–100 µg/mL, mean ± SD, n = 3
Protocol: (§1) Diverse human cancer cell lines: liver cancer cells (HepG2), colon cancer cell line (HCT-116), and breast cancer cell line (MCF-7) were brought from VACSERA Tissue Culture Unit (Giza, Egypt). RPMI-1640 media enhanced with 10% fetal bovine serum and […] gentamycin were employed to culture the cells. The cells were incubated at 37 °C with 5% CO2. […] IC50 was calculated by the Graph Pad Prism (version 8, San Diego, CA, USA) (n = 3 replicates). Data are presented as mean ± SD.

[2] = test system: HepG-2; experiment: MTT cytotoxicity on liver cancer cells HepG-2; type: cell-based; settings: Homo sapiens, HepG2, 0–100 µg/mL, mean ± SD, n = 3
Protocol: as §1

SMILES: COc1cccc2c1C(=O)c1c(O)c3c(c(O)c1C2=O)C[C@@](O)(C(=O)CO)C[C@@H]3O[C@H]1C[C@H](N)[C@H](O)[C@H](C)O1 [Doxorubicin (DOX), Doxorubicin]
- IC50 [1]: 11.7 ± 0.4 mg/L (≈ 21.5 µM)
- IC50 [2]: 7.21 ± 0.32 mg/L (≈ 13.3 µM)
